PubChem BioAssay AID1224830 | NIAID, 2016
Aim: 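Host factors that control LPS-induced TNF expression in human macrophages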 (primary screen). Cells: human THP-1 monocytic leukaemia cells, TNF dual-luciferase reporter clone, PMA-differentiated to macrophage-like cells. Reagents: siRNA pool against human genes, 50 nM. Time to read-out: LPS for 4 h, given about 3 days after siRNA transfection. Conditions: bacterial LPS (TLR4 ligand), 10 ng/ml. Detection: 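TNF firefly reporter luminescence divided by renilla, normalised to the plate median, then turned into a robust z-score for each replicate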. Reading the numbers: TNF reporter robust z-score: higher = stronger TNF reporter response to LPS. Call rule: 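Each well counts as active if its z-score is over 2.8 or under -1.5; controls are left without a call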.
Shown is a random part of about 18,000 reagents tested. About 2,900 of all reagents (16%) were called active. 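Calls are made per well; low scores hint the gene aids the LPS response, high scores that it dampens it.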 Unmarked entries are inactive. Repeated entries: four replicate wells of each siRNA pool. No sequences are given here.

| target gene | TNF reporter robust z-score |
| --- | --- |
| EIF3G | -0.21 |
| EIF3G | 0.28 |
| EIF3G | 0.27 |
| EIF3G | 0.1 |
| TAAR8 | 0.41 |
| TAAR8 | 0.51 |
| TAAR8 | 0.26 |
| TAAR8 | 0.73 |
| CYP4F8 | -1.18 |
| CYP4F8 | -1.4 |
| CYP4F8 | -0.51 |
| CYP4F8 | -0.96 |
| NAT9 | -0.73 |
| NAT9 | -0.5 |
| NAT9 | -0.71 |
| NAT9 | 0.17 |
| RSPH3 | 0.77 |
| RSPH3 | 1.28 |
| RSPH3 | 0 |
| RSPH3 | 1.19 |
| ELMO3 | -1.43 |
| ELMO3 | -0.53 |
| ELMO3 | -0.86 |
| ELMO3 | -0.87 |
| ZNF319 | -1.73 (active) |
| ZNF319 | -1.53 (active) |
| ZNF319 | -1.59 (active) |
| ZNF319 | -1.68 (active) |
| TAMALIN | 0.22 |
| TAMALIN | 0.02 |
| TAMALIN | 0.72 |
| TAMALIN | 0.44 |
| CYSTM1 | -0.1 |
| CYSTM1 | -0.36 |
| CYSTM1 | -0.78 |
| DGKB | -0.86 |
| DGKB | -0.67 |
| DGKB | -0.57 |
| DGKB | -0.2 |
| CELA3A | 0.09 |
| CELA3A | -0.11 |
| CELA3A | -0.6 |
| CELA3A | -0.87 |
| DIS3L2 | 0.08 |
| DIS3L2 | 0.27 |
| DIS3L2 | 0.48 |
| DIS3L2 | 0.71 |
| PCCA | -0.75 |
| PCCA | -0.53 |
| PCCA | -1.33 |
| PCCA | -0.35 |
| GJA9 | -0.47 |
| GJA9 | 0.26 |
| GJA9 | -0.61 |
| GJA9 | 0.61 |
| CHRNB1 | -0.38 |
| CHRNB1 | -0.33 |
| CHRNB1 | -0.98 |
| CHRNB1 | 0.1 |
| VAMP4 | -0.16 |
| VAMP4 | 0.75 |
| VAMP4 | 0.35 |
| VAMP4 | 0.31 |
| GSTT2 | 0.64 |
| GSTT2 | 0.36 |
| GSTT2 | 0.59 |
| GSTT2 | 1.12 |
| KLC1 | -0.67 |
| KLC1 | -0.32 |
| KLC1 | -0.48 |
| KLC1 | 0 |
| TUBGCP5 | 0.24 |
| TUBGCP5 | 0.49 |
| TUBGCP5 | -0.54 |
| TUBGCP5 | -0.16 |
| SMC2 | -0.34 |
| SMC2 | -0.45 |
| SMC2 | 0.38 |
| SMC2 | 1.43 |
| DSTN | 0.13 |
| DSTN | -0.5 |
| DSTN | -0.43 |
| DSTN | 0.06 |
| DNAJC21 | 0.49 |
| DNAJC21 | 1.83 |
| DNAJC21 | -0.25 |
| DNAJC21 | 2 |
| TOB2 | 1.29 |
| TOB2 | 1.06 |
| TOB2 | -0.37 |
| TOB2 | 0.55 |
| RBMY1E | 0.3 |
| RBMY1E | 0.78 |
| RBMY1E | 1.07 |
| RBMY1E | 0.41 |
| CHIC2 | 1.2 |
| CHIC2 | 1.84 |
| CHIC2 | 0.91 |
| CHIC2 | 1.58 |
| GAP43 | -0.26 |
| GAP43 | -0.25 |
| GAP43 | -0.41 |
| GAP43 | -0.36 |
| PNPT1 | -0.35 |
| PNPT1 | -0.37 |
| PNPT1 | -1.19 |
| PNPT1 | -0.74 |
| FLII | -0.24 |
| FLII | 0.33 |
| FLII | 0.79 |
| FLII | -0.04 |

18 entries from above, reformatted.
TAAR8 → TNF reporter robust z-score: 0.73
CYP4F8 → TNF reporter robust z-score: -1.18
CYP4F8 → TNF reporter robust z-score: -1.4
CYP4F8 → TNF reporter robust z-score: -0.51
CYP4F8 → TNF reporter robust z-score: -0.96
NAT9 → TNF reporter robust z-score: -0.73
NAT9 → TNF reporter robust z-score: -0.5
NAT9 → TNF reporter robust z-score: -0.71
NAT9 → TNF reporter robust z-score: 0.17
RSPH3 → TNF reporter robust z-score: 0.77
RSPH3 → TNF reporter robust z-score: 1.28
RSPH3 → TNF reporter robust z-score: 0
RSPH3 → TNF reporter robust z-score: 1.19
ELMO3 → TNF reporter robust z-score: -1.43
ELMO3 → TNF reporter robust z-score: -0.53
ELMO3 → TNF reporter robust z-score: -0.86
ELMO3 → TNF reporter robust z-score: -0.87
ZNF319 → TNF reporter robust z-score: -1.73 (active)
